# Some of the results follow.
# How the values were obtained:
# Assay in all cases: glycan array binding signal (z-score within array); higher = stronger binding
# Settings in all cases: glycan notation: IUPAC condensed, linker removed
# [1] = target: Fuc(a1-2)Gal(b1-4)GlcNAc(b1-3)Gal(b1-4)GlcNAc(b1-3)Gal(b1-4)GlcNAc
# Method in brief: (§1)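 Glycan array data were curated from 3228 arrays in the Consortium for Functional Glycomics database and kept only where the protein sequence was available. Glycan names were converted to IUPAC-condensed notation, and columns mapping to the same glycan were averaged. The binding signal is a within-array Z-score, averaged across arrays of the same protein sequence at different concentrations or buffers and across linkers. Negative Z-scores can be read as non-binding.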
# [2] = target: Fuc(a1-2)Gal(b1-4)GlcNAc(b1-3)GalNAc
# Method in brief: as §1
# [3] = target: Fuc(a1-2)Gal(b1-4)GlcNAc(b1-3)[Fuc(a1-2)Gal(b1-4)GlcNAc(b1-6)]GalNAc
# Method in brief: as §1
# [4] = target: Fuc(a1-2)Gal(b1-4)GlcNAc(b1-3)[Fuc(a1-3)[Gal(b1-4)]GlcNAc(b1-6)]Gal(b1-4)Glc
# Method in brief: as §1
# [5] = target: Fuc(a1-2)Gal(b1-4)GlcNAc(b1-6)GalNAc
# Method in brief: as §1
# [6] = target: Fuc(a1-2)Gal(b1-4)GlcNAc6S
# Method in brief: as §1
# [7] = target: Fuc(a1-2)Gal(b1-4)[Fuc(a1-3)]GlcNAc
# Method in brief: as §1
# [8] = target: Fuc(a1-2)Gal(b1-4)[Fuc(a1-3)]GlcNAc(b1-2)Man(a1-3)[Fuc(a1-2)Gal(b1-4)[Fuc(a1-3)]GlcNAc(b1-2)Man(a1-6)]Man(b1-4)GlcNAc(b1-4)[Fuc(a1-6)]GlcNAc
# Method in brief: as §1
# [9] = target: Fuc(a1-2)Gal(b1-4)[Fuc(a1-3)]GlcNAc(b1-2)[Fuc(a1-2)Gal(b1-4)[Fuc(a1-3)]GlcNAc(b1-4)]Man(a1-3)[Fuc(a1-2)Gal(b1-4)[Fuc(a1-3)]GlcNAc(b1-2)Man(a1-6)]Man(b1-4)GlcNAc(b1-4)GlcNAc
# Method in brief: as §1
# [10] = target: Fuc(a1-2)Gal(b1-4)[Fuc(a1-3)]GlcNAc(b1-3)Gal(b1-4)[Fuc(a1-3)]GlcNAc
# Method in brief: as §1
# [11] = target: Fuc(a1-2)Gal(b1-4)[Fuc(a1-3)]GlcNAc(b1-3)Gal(b1-4)[Fuc(a1-3)]GlcNAc(b1-3)Gal(b1-4)[Fuc(a1-3)]GlcNAc
# Method in brief: as §1
# [12] = target: Fuc(a1-2)Gal(b1-4)[Fuc(a1-3)]GlcNAc(b1-3)GalNAc
# Method in brief: as §1
# [13] = target: Fuc(a1-2)Gal(b1-4)[Fuc(a1-3)]GlcNAc(b1-3)[Neu5Ac(a2-6)Gal(b1-4)GlcNAc(b1-6)]Gal(b1-4)Glc
# Method in brief: as §1
# [14] = target: Fuc(a1-2)Gal3S(b1-4)GlcNAc
# Method in brief: as §1
# [15] = target: Fuc(a1-2)Gal6S(b1-3)GlcNAc
# Method in brief: as §1
# [16] = target: Fuc(a1-2)Gal6S(b1-3)GlcNAc6S
# Method in brief: as §1
# [17] = target: Fuc(a1-2)Gal6S(b1-4)Glc
# Method in brief: as §1
# [18] = target: Fuc(a1-2)Gal6S(b1-4)Glc6S
# Method in brief: as §1
# [19] = target: Fuc(a1-2)[Gal(a1-3)]Gal
# Method in brief: as §1
# [20] = target: Fuc(a1-2)[Gal(a1-3)]Gal(b1-3)GalNAc
# Method in brief: as §1
# [21] = target: Fuc(a1-2)[Gal(a1-3)]Gal(b1-3)GalNAc(b1-3)Gal(a1-4)Gal(b1-4)Glc
# Method in brief: as §1
# [22] = target: Fuc(a1-2)[Gal(a1-3)]Gal(b1-3)GlcNAc
# Method in brief: as §1
# [23] = target: Fuc(a1-2)[Gal(a1-3)]Gal(b1-3)GlcNAc(b1-2)Man(a1-3)[Fuc(a1-2)[Gal(a1-3)]Gal(b1-3)GlcNAc(b1-2)Man(a1-6)]Man(b1-4)GlcNAc(b1-4)GlcNAc
# Method in brief: as §1
# [24] = target: Fuc(a1-2)[Gal(a1-3)]Gal(b1-3)GlcNAc(b1-2)Man(a1-3)[Fuc(a1-2)[Gal(a1-3)]Gal(b1-3)GlcNAc(b1-2)Man(a1-6)]Man(b1-4)GlcNAc(b1-4)[Fuc(a1-6)]GlcNAc
# Method in brief: as §1
# [25] = target: Fuc(a1-2)[Gal(a1-3)]Gal(b1-3)GlcNAc(b1-3)GalNAc
# Method in brief: as §1
# [26] = target: Fuc(a1-2)[Gal(a1-3)]Gal(b1-3)GlcNAc(b1-6)GalNAc
# Method in brief: as §1
# [27] = target: Fuc(a1-2)[Gal(a1-3)]Gal(b1-4)Glc
# Method in brief: as §1
# [28] = target: Fuc(a1-2)[Gal(a1-3)]Gal(b1-4)GlcNAc
# Method in brief: as §1
# [29] = target: Fuc(a1-2)[Gal(a1-3)]Gal(b1-4)GlcNAc(b1-2)Man
# Method in brief: as §1
# [30] = target: Fuc(a1-2)[Gal(a1-3)]Gal(b1-4)GlcNAc(b1-2)Man(a1-3)[Fuc(a1-2)[Gal(a1-3)]Gal(b1-4)GlcNAc(b1-2)Man(a1-6)]Man(b1-4)GlcNAc(b1-4)GlcNAc
# Method in brief: as §1
# [31] = target: Fuc(a1-2)[Gal(a1-3)]Gal(b1-4)GlcNAc(b1-2)Man(a1-3)[Fuc(a1-2)[Gal(a1-3)]Gal(b1-4)GlcNAc(b1-2)Man(a1-6)]Man(b1-4)GlcNAc(b1-4)[Fuc(a1-6)]GlcNAc
# Method in brief: as §1
# [32] = target: Fuc(a1-2)[Gal(a1-3)]Gal(b1-4)GlcNAc(b1-3)GalNAc
# Method in brief: as §1
# [33] = target: Fuc(a1-2)[Gal(a1-3)]Gal(b1-4)GlcNAc(b1-3)[Fuc(a1-2)[Gal(a1-3)]Gal(b1-4)GlcNAc(b1-6)]GalNAc
# Method in brief: as §1
# [34] = target: Fuc(a1-2)[Gal(a1-3)]Gal(b1-4)GlcNAc(b1-6)GalNAc
# Method in brief: as §1
# [35] = target: Fuc(a1-2)[Gal(a1-3)]Gal(b1-4)[Fuc(a1-3)]Glc
# Method in brief: as §1
# [36] = target: Fuc(a1-2)[Gal(a1-3)]Gal(b1-4)[Fuc(a1-3)]GlcNAc
# Method in brief: as §1
# [37] = target: Fuc(a1-2)[Gal(a1-3)]Gal(b1-4)[Fuc(a1-3)]GlcNAc(b1-3)GalNAc
# Method in brief: as §1
# [38] = target: Fuc(a1-2)[Gal(a1-4)]Gal(b1-4)GlcNAc
# Method in brief: as §1
# [39] = target: Fuc(a1-2)[GalNAc(a1-3)]Gal
# Method in brief: as §1
# [40] = target: Fuc(a1-2)[GalNAc(a1-3)]Gal(b1-3)GalNAc(a1-3)[Fuc(a1-2)]Gal(b1-4)GlcNAc
# Method in brief: as §1
# [41] = target: Fuc(a1-2)[GalNAc(a1-3)]Gal(b1-3)GalNAc(b1-3)Gal(a1-4)Gal(b1-4)Glc
# Method in brief: as §1
# [42] = target: Fuc(a1-2)[GalNAc(a1-3)]Gal(b1-3)GlcNAc
# Method in brief: as §1
# [43] = target: Fuc(a1-2)[GalNAc(a1-3)]Gal(b1-3)GlcNAc(b1-2)Man(a1-3)[Fuc(a1-2)[GalNAc(a1-3)]Gal(b1-3)GlcNAc(b1-2)Man(a1-6)]Man(b1-4)GlcNAc(b1-4)GlcNAc
# Method in brief: as §1
# [44] = target: Fuc(a1-2)[GalNAc(a1-3)]Gal(b1-3)GlcNAc(b1-2)Man(a1-3)[Fuc(a1-2)[GalNAc(a1-3)]Gal(b1-3)GlcNAc(b1-2)Man(a1-6)]Man(b1-4)GlcNAc(b1-4)[Fuc(a1-6)]GlcNAc
# Method in brief: as §1
# [45] = target: Fuc(a1-2)[GalNAc(a1-3)]Gal(b1-3)GlcNAc(b1-3)GalNAc
# Method in brief: as §1
binder,measurement,setting,value
ArathEULS3 TAP (Arabidopsis thaliana) (protein) IDENLYFQGGSMDEKTTGWRGGHVVEGLAGELEQLRARLEHHPQGQREPGGGGSLEITSLYKKAGFMEHHHQHHRHHQRDDGEDDRQSFGVPPPHVDAPPQPHGLYQSQPHFDPYAPTPQAPAPYRSETQFEPHAPPPYRSEPYFETPAPPPSFGHVSHVGHQSPNESYPPEHHRYGGYQQPSNSLLESHGDHSGVTHVAHHSSNQPQSSSGVYHKPDENRLPDNLAGLAGRATVKVYSKAEPNYNLTIRDGKVILAPADPSDEAQHWYKDEKYSTKVKDADGHPCFALVNKATGEAMKHSVGATHPVHLIRYVPDKLDESVLWTESKDFGDGYRTIRMVNNTRLNVDAYHGDSKSGGVRDGTTIVLWDWNKGDNQLWKIFPF,glycan array binding signal (z-score),[1],-1.55
same,glycan array binding signal (z-score),[2],-0.457
same,glycan array binding signal (z-score),[3],0.565
same,glycan array binding signal (z-score),[4],-0.196
same,glycan array binding signal (z-score),[5],-0.606
same,glycan array binding signal (z-score),[6],-1.76
same,glycan array binding signal (z-score),[7],-0.553
same,glycan array binding signal (z-score),[8],1.46
same,glycan array binding signal (z-score),[9],0.621
same,glycan array binding signal (z-score),[10],0.109
same,glycan array binding signal (z-score),[11],0.508
same,glycan array binding signal (z-score),[12],-0.688
same,glycan array binding signal (z-score),[13],-0.644
same,glycan array binding signal (z-score),[14],0.007
same,glycan array binding signal (z-score),[15],-1.19
same,glycan array binding signal (z-score),[16],-0.204
same,glycan array binding signal (z-score),[17],1.85
same,glycan array binding signal (z-score),[18],-1.52
same,glycan array binding signal (z-score),[19],0.114
same,glycan array binding signal (z-score),[20],1.06
same,glycan array binding signal (z-score),[21],-0.79
same,glycan array binding signal (z-score),[22],-0.538
same,glycan array binding signal (z-score),[23],-0.697
same,glycan array binding signal (z-score),[24],-1.04
same,glycan array binding signal (z-score),[25],-0.908
same,glycan array binding signal (z-score),[26],-1.55
same,glycan array binding signal (z-score),[27],1.34
same,glycan array binding signal (z-score),[28],0.444
same,glycan array binding signal (z-score),[29],0.868
same,glycan array binding signal (z-score),[30],-0.837
same,glycan array binding signal (z-score),[31],-0.942
same,glycan array binding signal (z-score),[32],-0.333
same,glycan array binding signal (z-score),[33],0.214
same,glycan array binding signal (z-score),[34],-0.817
same,glycan array binding signal (z-score),[35],-0.729
same,glycan array binding signal (z-score),[36],1.04
same,glycan array binding signal (z-score),[37],1.51
same,glycan array binding signal (z-score),[38],1.48
same,glycan array binding signal (z-score),[39],0.118
same,glycan array binding signal (z-score),[40],-2.11
same,glycan array binding signal (z-score),[41],-0.019
same,glycan array binding signal (z-score),[42],0.099
same,glycan array binding signal (z-score),[43],-0.45
same,glycan array binding signal (z-score),[44],0.103
same,glycan array binding signal (z-score),[45],0.455

# Taken from the results shown (three entries):
binder,measurement,setting,value
ArathEULS3 TAP (Arabidopsis thaliana) (protein) IDENLYFQGGSMDEKTTGWRGGHVVEGLAGELEQLRARLEHHPQGQREPGGGGSLEITSLYKKAGFMEHHHQHHRHHQRDDGEDDRQSFGVPPPHVDAPPQPHGLYQSQPHFDPYAPTPQAPAPYRSETQFEPHAPPPYRSEPYFETPAPPPSFGHVSHVGHQSPNESYPPEHHRYGGYQQPSNSLLESHGDHSGVTHVAHHSSNQPQSSSGVYHKPDENRLPDNLAGLAGRATVKVYSKAEPNYNLTIRDGKVILAPADPSDEAQHWYKDEKYSTKVKDADGHPCFALVNKATGEAMKHSVGATHPVHLIRYVPDKLDESVLWTESKDFGDGYRTIRMVNNTRLNVDAYHGDSKSGGVRDGTTIVLWDWNKGDNQLWKIFPF,glycan array binding signal (z-score),[31],-0.942
same,glycan array binding signal (z-score),[32],-0.333
same,glycan array binding signal (z-score),[33],0.214
